This is one part of the list. Repeats in this data set agree poorly, so a single value says little.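 ATM8/balancer (normal ATM) heterozygous flies were crossed on treated food; parents laid eggs 5–6 days, offspring developed ~12 days, so parents and larvae ingested compound. Readout: fraction of emerged adults homozygous for ATM8 versus 2% DMSO controls. Compounds were neutral at 10–20% homozygotes, harmful below 10%, helpful above 20%.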 Bridge positions count the residues as written; N and C are the ends. Square brackets hold non-standard residues; d marks the D form. Peptide text beside a SMILES is read from it. * marks the point of attachment. Ileψ(thiazoline)Cys = CC[C@H](C)[C@H](N)C1=N[C@H](C(=O)*)CS1; dOrn = NCCC[C@@H](N)C(=O)O

The test relates to Drosophila melanogaster ATM8 (temperature-sensitive ATM allele). The test is described as follows: fraction of eclosed F1 progeny that are homozygous ATM8 (rescue of developmental lethality); higher = more rescue of ATM8 developmental lethality; extreme values may be limits of the assay. Particulars: compound concentration applied to food 0.2 mM; 21 °C.
With `CC(=O)OC1CCC2(C)C(=CCC3C2CCC2(C)C(C(C)CCCC(C)C)CCC32)C1` (centres undefined), the “fraction of eclosed F1 progeny that are homozygous ATM8” value (from here on “fraction”) was 0.127.

Take `C[C@]12CC[C@H](O)C[C@@H]1CC[C@@H]1[C@@H]2CC[C@]2(C)[C@@H](O)CC[C@@H]12` [5alpha-ANDROSTAN-3beta,17beta-DIOL]: the “fraction” value was 0.14.

Take `C[C@H](CCC(=O)O)[C@H]1CC[C@H]2[C@@H]3[C@H](O)C[C@@H]4C[C@H](O)CC[C@]4(C)[C@H]3C[C@H](O)[C@]12C`: the “fraction” value was 0.208.

For `O=c1ccc2cc(O)c(O)cc2o1`, the “fraction” value was found to be 0.242.

As for `Cc1c(OCC(F)(F)F)ccnc1C[S@@+]([O-])c1nc2ccccc2[nH]1`, the “fraction” value worked out at 0.29.

Regarding `COc1cc2c(N3CCN(C(=O)Nc4ccc(OC(C)C)cc4)CC3)ncnc2cc1OCCCN1CCCCC1`, the “fraction” value is 0.093.

In the case of `Cc1cc(O)c2c(c1)C(=O)c1cccc(O)c1C2=O`, the “fraction” value is 0.0923.

For `CC(C(=O)O)c1ccc(-c2ccccc2)c(F)c1` (centres undefined), the “fraction” value worked out at 0.15.

On to `O=C(OCC(O)CO)c1ccccc1Nc1ccnc2cc(Cl)ccc12` (centres undefined), for which the “fraction” value was 0.0811.

Consider `C[C@H]1O[C@@H](O[C@H]2[C@@H](O)C[C@H](O[C@H]3[C@@H](O)C[C@H](O[C@H]4CC[C@@]5(C)[C@H](CC[C@@H]6[C@@H]5C[C@@H](O)[C@]5(C)[C@@H](C7=CC(=O)OC7)CC[C@]65O)C4)O[C@@H]3C)O[C@@H]2C)C[C@H](O)[C@@H]1O`, for which the “fraction” value came to 0.114.

In the case of `Cc1cccc(C)c1NC(=O)C(C)N` (centres undefined), the “fraction” value was 0.164.

On to `O=C(O)C1CCCNC1` (centres undefined), for which the “fraction” value came to 0.0909.

Take `CO/N=C(\C(=O)N[C@@H]1C(=O)N2C(C(=O)O)=C(CSc3nnnn3C)CS[C@H]12)c1csc(N)n1`: the “fraction” value amounted to 0.111.

On to `CC(C(=O)O)c1ccc2c(c1)[nH]c1ccc(Cl)cc12` (centres undefined), for which the “fraction” value amounted to 0.167.

As for `O=C1c2c(O)cccc2C([C@@H]2O[C@H](CO)[C@@H](O)[C@H](O)[C@H]2O)c2cc(CO)cc(O)c21` (some centres undefined), the “fraction” value is 0.121.

With `CN(C)C(=O)C(CCN1CCC(O)(c2ccc(Cl)cc2)CC1)(c1ccccc1)c1ccccc1`, the “fraction” value amounted to 0.231.

For the molecule `COc1ccc(/C=C/C(=O)Nc2ccccc2C(=O)O)cc1OC`, the “fraction” value was found to be 0.0276.

On to `Nc1ccncc1`, for which the “fraction” value was 0.122.

Regarding `CCOC(=O)C1=C(COCCN)NC(C)=C(C(=O)OC)C1c1ccccc1Cl` (centres undefined), the “fraction” value stood at 0.368.

In the case of `CC(=O)N1CCCC1C(=O)O` (centres undefined), the “fraction” value is 0.0789.

`Oc1ccc(/C=C/c2cc(O)cc(O)c2)cc1`: the “fraction” value worked out at 0.174.

On to `Oc1c(Cl)cc(Cl)c(Cl)c1Cc1c(O)c(Cl)cc(Cl)c1Cl`, for which the “fraction” value was found to be 0.286.

As for `Cc1c(N(C)C)c(=O)n(-c2ccccc2)n1C`, the “fraction” value was 0.208.

For the molecule `COc1ccccc1OCC(O)CO` (centres undefined), the “fraction” value is 0.143.

`NC[C@@H]1O[C@H](O[C@H]2[C@@H](O)[C@H](O[C@@H]3[C@@H](O)[C@H](N)C[C@H](N)[C@H]3O[C@H]3O[C@H](CO)[C@@H](O)[C@H](O)[C@H]3N)O[C@@H]2CO)[C@H](N)[C@@H](O)[C@@H]1O`: the “fraction” value turned out to be 0.0492.

Regarding `CC[C@]1(O)C[C@H]2CN(CCc3c([nH]c4ccccc34)[C@@](C(=O)OC)(c3cc4c(cc3OC)N(C=O)[C@H]3[C@@](O)(C(=O)OC)[C@H](OC(C)=O)[C@]5(CC)C=CCN6CC[C@]43[C@@H]65)C2)C1`, the “fraction” value amounted to 0.06.

As to `COc1cc(C)c2c(c1C=O)Oc1c(c(C)c(O)c3c1C(O)OC3=O)OC2=O` (centres undefined), the “fraction” value stood at 0.104.

`CC(=O)[C@H]1CC[C@H]2[C@@H]3C=CC4=CC(=O)CC[C@@]4(C)[C@@H]3CC[C@]12C`: the “fraction” value was 0.0303.

Consider `Cc1cc(=O)[nH]c(=S)[nH]1`, for which the “fraction” value stood at 0.069.

Consider `CN(C)Cc1c[nH]c2ccccc12`, for which the “fraction” value is 0.164.

As for `O=C(CCCCCCCC(=O)NCCO)NCCO`, the “fraction” value amounted to 0.156.

On to `CN1[C@@H]2CC[C@H]1C[C@@H](OC(=O)c1c[nH]c3ccccc13)C2`, for which the “fraction” value was found to be 0.2.

For the molecule `Oc1cc(O)c2c(c1)O[C@H](c1cc(O)c(O)c(O)c1)[C@H](O)C2`, the “fraction” value was found to be 0.173.

As to `Nc1ccn([C@H]2CC[C@@H](CO)O2)c(=O)n1`, the “fraction” value was 0.0682.

`CN(C(=O)C(Cl)Cl)c1ccc(OC(=O)c2ccco2)cc1`: the “fraction” value was determined as 0.0227.

As for `O=C1c2ccc(O)c(O)c2C(=O)c2c(O)ccc(O)c21`, the “fraction” value was 0.1.

Regarding `COc1cc(/C=C/C(N)=O)cc(OC)c1OC`, the “fraction” value worked out at 0.125.

For the molecule `C=CCNC(N)=S`, the “fraction” value turned out to be 0.264.

For `CN(C)CCOC(C)(c1ccccc1)c1ccccn1` (centres undefined), the “fraction” value stood at 0.0541.

In the case of `CC(=O)c1ccc2c(c1)N(CCCN(C)C)c1ccccc1S2`, the “fraction” value is 0.

In the case of `COc1ccc(-c2cc(=O)c3cc(OC)ccc3o2)cc1`, the “fraction” value was determined as 0.174.

With `CC(C)(C#N)c1cc(Cn2cncn2)cc(C(C)(C)C#N)c1`, the “fraction” value is 0.0714.

Regarding `C=CC(C1=CC(=O)C(OC)=CC1=O)c1ccc(OC)cc1` (centres undefined), the “fraction” value is 0.105.

Turning to `Oc1c(I)cc(Cl)c2cccnc12`, the “fraction” value is 0.417.

On to `OC(CNCC(O)C1CCc2cc(F)ccc2O1)C1CCc2cc(F)ccc2O1` (centres undefined), for which the “fraction” value came out at 0.22.

Turning to `O=C(CCc1ccc(O)cc1)c1c(O)cc(O)cc1O`, the “fraction” value was determined as 0.189.

As to `CC[C@H](C)[C@H](N)C1=N[C@H](C(=O)N[C@@H](CC(C)C)C(=O)N[C@H](CCC(=O)O)C(=O)N[C@H](C(=O)N[C@H]2CCCCNC(=O)[C@H](CC(N)=O)NC(=O)[C@@H](CC(=O)O)NC(=O)[C@H](Cc3cnc[nH]3)NC(=O)[C@@H](Cc3ccccc3)NC(=O)[C@H]([C@@H](C)CC)NC(=O)[C@@H](CCCN)NC2=O)[C@@H](C)CC)CS1` ({Ileψ(thiazoline)Cys}-L[dE]IK[dOrn]I[dF]H[dD]N; lactam 4-C), the “fraction” value turned out to be 0.143.

For `COC(=O)[C@@H]1C[C@H](OC(C)=O)C(=O)[C@H]2[C@@]1(C)CC[C@H]1C(=O)O[C@H](c3ccoc3)C[C@]21C`, the “fraction” value amounted to 0.167.

For the molecule `CC[C@@H](C(N)=O)N1CCCC1=O`, the “fraction” value was 0.0238.

Turning to `CC(=O)NS(=O)(=O)c1ccc(NC(=O)c2ccccc2C(=O)O)cc1`, the “fraction” value is 0.149.

`Cc1c[nH]c2ccccc12`: the “fraction” value was found to be 0.182.

With `O=C(O)CCCc1ccc(N(CCCl)CCCl)cc1`, the “fraction” value was determined as 0.133.

As for `COc1ccc(OC)c(C(O)CNC(=O)CN)c1` (centres undefined), the “fraction” value is 0.0168.

On to `CC(S)C(=O)NCC(=O)O` (centres undefined), for which the “fraction” value was 0.19.

Regarding `C=CC(C)(O)CCC1C(=C)CC(OC(C)=O)C2C(C)(C)CCCC12C` (centres undefined), the “fraction” value was 0.179.

In the case of `CN1CCN(CCCN2c3ccccc3Sc3ccc(C(F)(F)F)cc32)CC1`, the “fraction” value turned out to be 0.0833.

On to `CC[C@@]1(O)C[C@H](O)c2c(cc3c(c2O)C(=O)c2c(O)ccc(O)c2C3=O)[C@H]1C(=O)OC`, for which the “fraction” value came to 0.116.

With `CNC[C@H](O)c1ccc(O)c(O)c1`, the “fraction” value turned out to be 0.0789.

Regarding `COC(=O)C[C@H]1C(C)(C)C2(O)OC34CC2C(=O)[C@]1(C)C3CC[C@]1(C)C4=CC(=O)O[C@H]1c1ccoc1` (stereo partly drawn) [8beta-HYDROXYCARAPIN, 3,8-HEMIACETAL], the “fraction” value was found to be 0.225.

The values are drawn from the supplement of paper PMC5770031.
